Our source for the binding values is article PMC6588558.

Protein sequences, listed by entry. Tags and fused reporters are not part of them. Residues count along the entry.
UniProt P60811, residues 23-351: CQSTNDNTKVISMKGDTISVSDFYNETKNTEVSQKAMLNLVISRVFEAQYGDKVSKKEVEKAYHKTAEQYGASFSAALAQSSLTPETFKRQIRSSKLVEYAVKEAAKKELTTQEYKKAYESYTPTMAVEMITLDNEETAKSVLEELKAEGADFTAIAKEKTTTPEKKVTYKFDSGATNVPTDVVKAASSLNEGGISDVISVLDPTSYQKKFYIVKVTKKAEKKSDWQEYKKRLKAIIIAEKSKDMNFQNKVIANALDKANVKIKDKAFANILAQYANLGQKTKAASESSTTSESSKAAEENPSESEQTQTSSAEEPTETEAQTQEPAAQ
UniProt P02671, residues 36-866: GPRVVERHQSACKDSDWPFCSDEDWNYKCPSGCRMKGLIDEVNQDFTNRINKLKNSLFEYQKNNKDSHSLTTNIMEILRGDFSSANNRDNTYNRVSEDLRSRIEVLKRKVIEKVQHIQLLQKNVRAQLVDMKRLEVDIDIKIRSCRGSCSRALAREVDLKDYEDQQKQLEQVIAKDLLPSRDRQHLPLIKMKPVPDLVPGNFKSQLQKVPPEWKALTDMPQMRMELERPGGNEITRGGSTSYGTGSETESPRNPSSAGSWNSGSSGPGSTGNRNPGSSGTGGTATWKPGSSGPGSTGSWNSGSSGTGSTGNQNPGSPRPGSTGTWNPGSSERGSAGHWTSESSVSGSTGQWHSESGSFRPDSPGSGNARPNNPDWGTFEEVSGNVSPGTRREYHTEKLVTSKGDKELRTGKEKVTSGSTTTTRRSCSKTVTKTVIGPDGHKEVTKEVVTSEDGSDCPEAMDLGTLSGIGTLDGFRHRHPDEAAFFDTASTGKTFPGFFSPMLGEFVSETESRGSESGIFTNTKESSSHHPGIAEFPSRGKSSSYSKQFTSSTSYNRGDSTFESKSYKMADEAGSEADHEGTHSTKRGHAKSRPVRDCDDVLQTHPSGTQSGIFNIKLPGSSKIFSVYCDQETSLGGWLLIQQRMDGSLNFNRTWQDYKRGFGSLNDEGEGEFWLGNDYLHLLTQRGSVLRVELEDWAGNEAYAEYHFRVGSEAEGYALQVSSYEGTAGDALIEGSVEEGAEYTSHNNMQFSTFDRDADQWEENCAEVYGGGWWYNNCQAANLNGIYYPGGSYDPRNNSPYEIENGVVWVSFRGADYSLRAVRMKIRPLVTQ
UniProt P02751, residues 32-2477: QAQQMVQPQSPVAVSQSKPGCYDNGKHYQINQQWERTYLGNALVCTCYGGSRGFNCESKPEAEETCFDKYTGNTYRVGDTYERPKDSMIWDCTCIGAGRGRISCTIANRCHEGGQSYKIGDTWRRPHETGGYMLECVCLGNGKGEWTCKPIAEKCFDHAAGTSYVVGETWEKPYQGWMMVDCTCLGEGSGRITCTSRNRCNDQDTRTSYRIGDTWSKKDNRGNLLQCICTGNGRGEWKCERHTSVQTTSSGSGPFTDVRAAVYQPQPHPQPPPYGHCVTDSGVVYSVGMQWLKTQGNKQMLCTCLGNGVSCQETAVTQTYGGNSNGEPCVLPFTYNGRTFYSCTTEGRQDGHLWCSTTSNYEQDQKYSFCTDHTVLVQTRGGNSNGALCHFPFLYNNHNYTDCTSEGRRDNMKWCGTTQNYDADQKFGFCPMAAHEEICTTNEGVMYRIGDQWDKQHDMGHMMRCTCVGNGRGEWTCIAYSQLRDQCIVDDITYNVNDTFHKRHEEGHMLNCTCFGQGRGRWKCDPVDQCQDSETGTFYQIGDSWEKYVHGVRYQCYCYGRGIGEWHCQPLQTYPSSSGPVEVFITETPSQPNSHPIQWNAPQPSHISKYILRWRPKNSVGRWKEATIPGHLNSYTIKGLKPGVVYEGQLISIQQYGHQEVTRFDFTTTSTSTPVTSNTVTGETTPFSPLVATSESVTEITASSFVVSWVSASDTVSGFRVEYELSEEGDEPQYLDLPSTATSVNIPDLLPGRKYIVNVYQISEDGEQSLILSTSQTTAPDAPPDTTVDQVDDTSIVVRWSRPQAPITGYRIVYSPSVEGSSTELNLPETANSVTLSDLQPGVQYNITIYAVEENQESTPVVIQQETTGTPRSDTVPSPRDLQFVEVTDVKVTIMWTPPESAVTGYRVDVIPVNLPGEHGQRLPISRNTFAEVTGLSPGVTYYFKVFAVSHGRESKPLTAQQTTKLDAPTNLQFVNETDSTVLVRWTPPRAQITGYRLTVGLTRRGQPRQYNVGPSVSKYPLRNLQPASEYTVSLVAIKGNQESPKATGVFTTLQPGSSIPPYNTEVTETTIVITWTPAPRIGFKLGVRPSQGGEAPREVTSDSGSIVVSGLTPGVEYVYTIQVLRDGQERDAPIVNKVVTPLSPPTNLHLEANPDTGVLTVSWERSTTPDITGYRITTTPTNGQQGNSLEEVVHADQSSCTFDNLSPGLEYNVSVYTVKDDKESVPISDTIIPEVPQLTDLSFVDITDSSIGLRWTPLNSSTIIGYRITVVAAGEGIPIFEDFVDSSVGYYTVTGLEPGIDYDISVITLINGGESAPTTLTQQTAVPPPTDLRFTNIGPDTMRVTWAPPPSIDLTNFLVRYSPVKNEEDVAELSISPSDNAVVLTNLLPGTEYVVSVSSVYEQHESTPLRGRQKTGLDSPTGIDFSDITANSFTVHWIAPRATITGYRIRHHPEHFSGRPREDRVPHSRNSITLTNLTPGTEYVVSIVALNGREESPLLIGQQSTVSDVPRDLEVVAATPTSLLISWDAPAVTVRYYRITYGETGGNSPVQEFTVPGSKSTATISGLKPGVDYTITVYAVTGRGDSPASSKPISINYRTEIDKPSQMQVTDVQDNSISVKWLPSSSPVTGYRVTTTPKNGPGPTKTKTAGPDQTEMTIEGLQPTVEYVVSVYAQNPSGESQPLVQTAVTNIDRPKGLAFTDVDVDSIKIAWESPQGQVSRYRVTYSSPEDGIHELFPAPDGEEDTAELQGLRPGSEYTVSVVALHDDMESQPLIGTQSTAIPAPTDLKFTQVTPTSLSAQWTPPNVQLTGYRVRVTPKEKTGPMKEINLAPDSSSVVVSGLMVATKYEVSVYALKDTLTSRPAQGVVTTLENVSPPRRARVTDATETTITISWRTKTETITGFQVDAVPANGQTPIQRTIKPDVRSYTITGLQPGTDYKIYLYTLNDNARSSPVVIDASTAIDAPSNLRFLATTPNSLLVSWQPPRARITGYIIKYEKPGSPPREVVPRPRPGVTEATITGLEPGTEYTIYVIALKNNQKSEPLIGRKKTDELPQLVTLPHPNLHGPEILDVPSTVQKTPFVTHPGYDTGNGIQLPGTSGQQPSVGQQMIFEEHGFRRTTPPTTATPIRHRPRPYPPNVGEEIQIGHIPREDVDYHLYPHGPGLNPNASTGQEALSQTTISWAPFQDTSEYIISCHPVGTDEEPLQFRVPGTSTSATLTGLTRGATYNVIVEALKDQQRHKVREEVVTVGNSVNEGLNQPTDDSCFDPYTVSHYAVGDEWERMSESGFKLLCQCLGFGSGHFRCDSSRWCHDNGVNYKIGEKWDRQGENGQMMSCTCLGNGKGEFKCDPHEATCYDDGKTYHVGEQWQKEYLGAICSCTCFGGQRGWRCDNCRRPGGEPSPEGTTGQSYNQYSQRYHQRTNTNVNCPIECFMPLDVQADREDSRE
UniProt P02649, residues 19-317: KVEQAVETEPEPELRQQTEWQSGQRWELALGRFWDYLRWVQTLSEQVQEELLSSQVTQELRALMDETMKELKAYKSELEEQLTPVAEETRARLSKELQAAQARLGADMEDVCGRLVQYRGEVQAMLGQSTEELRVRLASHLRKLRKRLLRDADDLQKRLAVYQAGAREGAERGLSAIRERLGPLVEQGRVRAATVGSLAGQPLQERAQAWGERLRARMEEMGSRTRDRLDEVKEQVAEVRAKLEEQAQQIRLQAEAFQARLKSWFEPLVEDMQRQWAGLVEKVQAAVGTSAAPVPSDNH
UniProt P02679, residues 27-453: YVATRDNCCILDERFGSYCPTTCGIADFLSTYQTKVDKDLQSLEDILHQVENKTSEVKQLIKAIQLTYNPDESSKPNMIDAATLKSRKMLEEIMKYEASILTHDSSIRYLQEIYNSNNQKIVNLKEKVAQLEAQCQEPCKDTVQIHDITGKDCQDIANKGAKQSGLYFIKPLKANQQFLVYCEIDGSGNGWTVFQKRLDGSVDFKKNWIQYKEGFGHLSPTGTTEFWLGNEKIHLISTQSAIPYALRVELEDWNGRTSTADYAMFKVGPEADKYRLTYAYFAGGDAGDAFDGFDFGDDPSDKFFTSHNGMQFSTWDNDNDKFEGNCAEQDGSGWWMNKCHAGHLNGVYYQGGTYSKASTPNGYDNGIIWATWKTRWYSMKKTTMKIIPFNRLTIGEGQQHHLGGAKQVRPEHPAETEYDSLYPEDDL

Assay in all cases: cross-linking
For test [1], the target named is T1, CovR (S. pyogenes (endogenous in strain SF370)) (UniProt O87527).
T1 sequence: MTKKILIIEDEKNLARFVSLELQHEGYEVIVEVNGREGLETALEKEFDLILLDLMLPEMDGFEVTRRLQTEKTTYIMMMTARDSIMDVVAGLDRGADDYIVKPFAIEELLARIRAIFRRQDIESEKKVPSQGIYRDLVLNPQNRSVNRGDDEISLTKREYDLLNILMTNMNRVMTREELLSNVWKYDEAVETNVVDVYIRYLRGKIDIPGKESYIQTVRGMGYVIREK

Test [2] addresses Foldase protein PrsA1 (S. pyogenes (endogenous in strain SF370)) (UniProt P60811).
Test [3] has the same target. This is another data set of the same source.
For test [4], the target named is T1, CovR (S. pyogenes (endogenous in strain SF370)). This is another data set of the same source.

Read-outs that look alike come from different tables or passages of the source. These are yes or no findings as the source states them, for the method shown. In cells and extracts the contact can be indirect. Some results given as binding are weak or reduced against the parent protein; the word gives no strength.

“fibrinogen chain alpha (from UniProt P02671 36-866)”: the binding entry in test [1] is “binds”.

With “fibronectin (from UniProt P02751 32-2477)”, in test [1], the binding entry is “binds”.

Consider APOE (from UniProt P02649 19-317), for which, in test [2], the binding result is “binds”.

Take FGG (from UniProt P02679 27-453): in test [1], the binding entry is given as “binds”.

B1: PROS1 (protein, UniProt P07225 42-676)
chain: ANSLLEETKQGNLERECIEELCNKEEAREVFENDPETDYFYPKYLVCLRSFQTGLFTAARQSTNAYPDLRSCVNAIPDQCSPLPCNEDGYMSCKDGKASFTCTCKPGWQGEKCEFDINECKDPSNINGGCSQICDNTPGSYHCSCKNGFVMLSNKKDCKDVDECSLKPSICGTAVCKNIPGDFECECPEGYRYNLKSKSCEDIDECSENMCAQLCVNYPGGYTCYCDGKKGFKLAQDQKSCEVVSVCLPLNLDTKYELLYLAEQFAGVVLYLKFRLPEISRFSAEFDFRTYDSEGVILYAESIDHSAWLLIALRGGKIEVQLKNEHTSKITTGGDVINNGLWNMVSVEELEHSISIKIAKEAVMDINKPGPLFKPENGLLETKVYFAGFPRKVESELIKPINPRLDGCIRSWNLMKQGASGIKEIIQEKQNKHCLVTVEKGSYYPGSGIAQFHIDYNNVSSAEGWHVNVTLNIRPSTGTGVMLALVSGNNTVPFAVSLVDSTSEKSQDILLSVENTVIYRIQALSLCSDQQSHLEFRVNRNNLELSTPLKIETISHEDLQRQLAVLDKAMKAKVATYLGGLPDVPFSATPVNAFYNGCMEVNINGVQLDLDEAISKHNDIRAHSCPSVWKKTKNS
Take B1: the binding entry in test [3] is listed as “binds”.

B2: CFHR5 (protein, UniProt Q9BXR6 19-569)
chain: EGTLCDFPKIHHGFLYDEEDYNPFSQVPTGEVFYYSCEYNFVSPSKSFWTRITCTEEGWSPTPKCLRMCSFPFVKNGHSESSGLIHLEGDTVQIICNTGYSLQNNEKNISCVERGWSTPPICSFTKGECHVPILEANVDAQPKKESYKVGDVLKFSCRKNLIRVGSDSVQCYQFGWSPNFPTCKGQVRSCGPPPQLSNGEVKEIRKEEYGHNEVVEYDCNPNFIINGPKKIQCVDGEWTTLPTCVEQVKTCGYIPELEYGYVQPSVPPYQHGVSVEVNCRNEYAMIGNNMITCINGIWTELPMCVATHQLKRCKIAGVNIKTLLKLSGKEFNHNSRIRYRCSDIFRYRHSVCINGKWNPEVDCTEKREQFCPPPPQIPNAQNMTTTVNYQDGEKVAVLCKENYLLPEAKEIVCKDGRWQSLPRCVESTAYCGPPPSINNGDTTSFPLSVYPPGSTVTYRCQSFYKLQGSVTVTCRNKQWSEPPRCLDPCVVSEENMNKNNIQLKWRNDGKLYAKTGDAVEFQCKFPHKAMISSPPFRAICQEGKFEYPICE
As to B2, in test [4], the binding entry is given as “binds”.
